Results are given in words; binding and its absence hold for the method and conditions named. In cells and extracts the contact can be indirect.
Target: lamin A/C (UniProt P02545)
Assay: co-IP; coimmunoprecipitation of TDP-43 and lamin A/C; no methods, conditions or figure given

Protein sequences, listed by entry. Tags and fused reporters are not part of them. Residues count along the entry.
UniProt P02545, residues 1-646: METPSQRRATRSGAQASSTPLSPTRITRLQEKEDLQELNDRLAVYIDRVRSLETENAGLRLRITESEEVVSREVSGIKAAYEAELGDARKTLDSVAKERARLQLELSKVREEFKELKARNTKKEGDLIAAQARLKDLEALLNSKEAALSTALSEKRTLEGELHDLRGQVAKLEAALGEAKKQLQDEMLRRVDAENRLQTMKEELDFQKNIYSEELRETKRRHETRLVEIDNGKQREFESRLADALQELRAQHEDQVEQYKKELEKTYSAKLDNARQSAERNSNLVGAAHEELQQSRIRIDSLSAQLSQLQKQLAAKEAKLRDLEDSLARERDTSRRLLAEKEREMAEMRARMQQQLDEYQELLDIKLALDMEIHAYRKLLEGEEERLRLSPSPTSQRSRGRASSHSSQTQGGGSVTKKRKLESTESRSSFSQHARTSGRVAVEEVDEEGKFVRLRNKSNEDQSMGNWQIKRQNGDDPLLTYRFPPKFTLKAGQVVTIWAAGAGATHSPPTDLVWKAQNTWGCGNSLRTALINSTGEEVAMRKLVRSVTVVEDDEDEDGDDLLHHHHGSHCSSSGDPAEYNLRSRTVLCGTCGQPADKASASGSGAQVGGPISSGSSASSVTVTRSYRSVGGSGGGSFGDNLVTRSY
UniProt Q13148: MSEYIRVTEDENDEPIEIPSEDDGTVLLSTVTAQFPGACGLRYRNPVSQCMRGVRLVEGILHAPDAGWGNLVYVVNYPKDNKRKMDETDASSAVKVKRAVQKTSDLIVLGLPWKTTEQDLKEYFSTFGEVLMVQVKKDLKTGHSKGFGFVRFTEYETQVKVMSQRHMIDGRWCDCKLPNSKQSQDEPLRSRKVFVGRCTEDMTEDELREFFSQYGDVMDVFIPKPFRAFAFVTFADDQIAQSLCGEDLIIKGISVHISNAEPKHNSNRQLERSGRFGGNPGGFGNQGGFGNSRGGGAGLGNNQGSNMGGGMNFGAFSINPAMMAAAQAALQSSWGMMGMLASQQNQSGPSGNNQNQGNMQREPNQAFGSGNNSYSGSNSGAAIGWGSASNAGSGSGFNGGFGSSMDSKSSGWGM

binding: no binding
Substance: TDP-43 (from UniProt Q13148 1-414)
